Assay: pH of aqueous solutions of the compounds
Format: physicochemical
Conditions: stock solutions prepared in culture media diluted with deionized water
Procedure: The pH values shown in Table 1 were determined in aqueous solutions made by diluting stock solutions prepared in culture media with deionized water.

NCCC[C@H](N)C(=O)O [ORNITHINE]
pH (H20): 7.37

— patent US20030073654A1, “Stabilized transient gene expression” (Genespan Corporation, priority 1996, published 2003)
